Measured values: doi:10.1101/2023.10.17.562819

Biological target: Ct226-FLAG (Chlamydia trachomatis)
Experiment: co-IP

B1: leucine rich repeat Flightless-1 interacting protein 1 (protein, UniProt Q32MZ4 1-808)
chain: MTSPAAAQSREIDCLSPEAQKLAEARLAAKRAARAEAREIRMKELERQQKEEDSERYSRRSRRNTSASDEDERMSVGSRGSLRVEERPEKDFTEKGSRNMPGLSAATLASLGGTSSRRGSGDTSISIDTEASIREIKELNELKDQIQDVEGKYMQGLKEMKDSLAEVEEKYKKAMVSNAQLDNEKTNFMYQVDTLKDMLLELEEQLAESRRQYEEKNKEFEREKHAHSILQFQFAEVKEALKQREEMLEKHGIILNSEIATNGETSDTLNNVGYQGPTKMTKEELNALKSTGDGTLGRASEVEVKNEIVANVGKREILHNTEKEQHTEDTVKDCVDIEVFPAGENTEDQKSSEDTAPFLGTLAGATYEEQVQSQILESSSLPENTVQVESNEVMGAPDDRTRTPLEPSNCWSDLDGGNHTENVGEAAVTQVEEQAGTVASCPLGHSDDTVYHDDKCMVEVPQELETSTGHSLEKEFTNQEAAEPKEVPAHSTEVGRDHNEEEGEETGLRDEKPIKTEVPGSPAGTEGNCQEATGPSTVDTQNEPLDMKEPDEEKSDQQGEALDSSQKKTKNKKKKNKKKKSPVPVETLKDVKKELTYQNTDLSEIKEEEQVKSTDRKSAVEAQNEVTENPKQKIAAESSENVDCPENPKIKLDGKLDQEGDDVQTAAEEVLADGDTLDFEDDTVQSSGPRAGGEELDEGVAKDNAKIDGATQSSPAEPKSEDADRCTLPEHESPSQDISDACEAESTERCEMSEHPSQTVRKALDSNSLENDDLSAPGREPGHFNPESREDTRGGNEKGKSKEDCTMS
- binding: binds

Results are given in words; binding and its absence hold for the method and conditions named. In cells and extracts the contact can be indirect. A result given as binding can be weak or reduced; the word gives no strength.
